The list shows a part of the results.
What follows are targets tested with CC(=O)c1cnc2ccc(-c3cc(Cl)c(O)c(Cl)c3)nc2c1N[C@H]1CC[C@H](CN(C)C)CC1 (assay: log2 fold change, soluble protein after heating vs DMSO (PISA); higher = thermal stabilisation; K562 cells, 10 uM, 30 min; active = over 0.2 and 3.5 SD of the protein, either way, in both replicates (recomputed)).
Summary of the method: (§1)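 Soluble protein was quantified by TMTpro 16plex LC-MS/MS after channel sums were equalised. It was obtained as the supernatant after 21,000xg for 90 min from pooled aliquots of K562 cells (2×10^6 cells/mL, 10 μM compound, 30 min) heated for 3 min across 48°C-58°C and extracted in PBS with 0.5% NP-40 at 4°C. Thermal stability values are relative to control samples and come from duplicates. They are given as log2 fold changes.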

The chains behind the UniProt entries cited, without tags or fusion partners. Where a name states a change or a piece, a line headed by the entry shows the natural chain unless it says otherwise.
UniProt O75351, whole entry, looked up: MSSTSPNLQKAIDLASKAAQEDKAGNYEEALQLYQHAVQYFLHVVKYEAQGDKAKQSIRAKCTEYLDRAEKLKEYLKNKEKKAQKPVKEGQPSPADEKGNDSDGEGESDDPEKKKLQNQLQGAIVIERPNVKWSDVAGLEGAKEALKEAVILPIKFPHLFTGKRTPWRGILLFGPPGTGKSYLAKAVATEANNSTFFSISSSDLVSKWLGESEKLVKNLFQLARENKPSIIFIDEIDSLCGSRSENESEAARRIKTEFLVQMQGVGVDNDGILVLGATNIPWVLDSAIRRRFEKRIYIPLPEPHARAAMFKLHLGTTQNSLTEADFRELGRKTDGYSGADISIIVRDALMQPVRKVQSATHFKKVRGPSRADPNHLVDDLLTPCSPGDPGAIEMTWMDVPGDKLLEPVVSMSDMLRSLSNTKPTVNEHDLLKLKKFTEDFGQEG
UniProt Q6RFH5: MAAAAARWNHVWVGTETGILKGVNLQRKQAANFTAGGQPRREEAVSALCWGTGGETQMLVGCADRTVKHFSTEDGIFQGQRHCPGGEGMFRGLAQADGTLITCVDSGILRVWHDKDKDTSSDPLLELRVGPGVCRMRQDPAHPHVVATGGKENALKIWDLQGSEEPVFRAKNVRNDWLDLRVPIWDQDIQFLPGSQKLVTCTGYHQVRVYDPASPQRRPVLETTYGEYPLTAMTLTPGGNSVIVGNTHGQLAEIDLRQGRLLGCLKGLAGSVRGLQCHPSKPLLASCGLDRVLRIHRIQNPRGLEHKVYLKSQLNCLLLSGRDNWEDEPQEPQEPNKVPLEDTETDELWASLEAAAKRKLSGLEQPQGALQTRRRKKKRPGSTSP
UniProt Q8NI36: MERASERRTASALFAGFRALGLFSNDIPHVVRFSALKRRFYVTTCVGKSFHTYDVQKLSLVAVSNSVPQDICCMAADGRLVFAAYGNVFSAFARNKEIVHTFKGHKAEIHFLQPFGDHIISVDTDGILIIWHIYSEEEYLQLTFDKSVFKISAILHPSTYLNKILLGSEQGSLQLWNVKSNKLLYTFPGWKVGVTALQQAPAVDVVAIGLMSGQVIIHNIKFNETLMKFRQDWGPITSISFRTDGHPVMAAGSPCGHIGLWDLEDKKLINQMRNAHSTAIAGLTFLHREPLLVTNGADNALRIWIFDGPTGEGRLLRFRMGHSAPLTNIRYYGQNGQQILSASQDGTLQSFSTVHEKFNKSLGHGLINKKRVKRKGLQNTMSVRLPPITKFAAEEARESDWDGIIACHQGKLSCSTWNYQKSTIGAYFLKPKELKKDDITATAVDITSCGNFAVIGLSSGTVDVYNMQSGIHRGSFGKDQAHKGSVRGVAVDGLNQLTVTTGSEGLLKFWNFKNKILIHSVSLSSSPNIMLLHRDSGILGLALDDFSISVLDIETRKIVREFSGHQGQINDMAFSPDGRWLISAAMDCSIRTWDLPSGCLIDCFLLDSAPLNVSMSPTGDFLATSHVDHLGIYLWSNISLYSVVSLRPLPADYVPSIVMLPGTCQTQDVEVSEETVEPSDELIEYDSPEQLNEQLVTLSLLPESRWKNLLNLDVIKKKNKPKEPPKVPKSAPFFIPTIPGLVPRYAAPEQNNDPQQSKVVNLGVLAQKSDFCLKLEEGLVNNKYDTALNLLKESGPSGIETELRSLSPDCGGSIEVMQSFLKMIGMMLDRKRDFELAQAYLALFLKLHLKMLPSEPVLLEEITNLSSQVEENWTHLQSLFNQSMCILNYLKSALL
UniProt Q8TF74: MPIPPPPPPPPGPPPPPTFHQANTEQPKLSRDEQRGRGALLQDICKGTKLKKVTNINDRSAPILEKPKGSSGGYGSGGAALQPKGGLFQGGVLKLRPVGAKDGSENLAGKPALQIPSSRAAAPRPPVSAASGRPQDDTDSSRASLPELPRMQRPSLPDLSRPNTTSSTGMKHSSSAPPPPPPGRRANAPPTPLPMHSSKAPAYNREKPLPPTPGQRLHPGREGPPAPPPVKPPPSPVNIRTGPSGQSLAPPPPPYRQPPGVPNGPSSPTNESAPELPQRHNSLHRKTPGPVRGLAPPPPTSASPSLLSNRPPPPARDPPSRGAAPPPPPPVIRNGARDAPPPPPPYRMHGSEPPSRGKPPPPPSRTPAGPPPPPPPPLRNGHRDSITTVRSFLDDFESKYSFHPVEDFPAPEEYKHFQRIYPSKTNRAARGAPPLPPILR
UniProt Q86VN1: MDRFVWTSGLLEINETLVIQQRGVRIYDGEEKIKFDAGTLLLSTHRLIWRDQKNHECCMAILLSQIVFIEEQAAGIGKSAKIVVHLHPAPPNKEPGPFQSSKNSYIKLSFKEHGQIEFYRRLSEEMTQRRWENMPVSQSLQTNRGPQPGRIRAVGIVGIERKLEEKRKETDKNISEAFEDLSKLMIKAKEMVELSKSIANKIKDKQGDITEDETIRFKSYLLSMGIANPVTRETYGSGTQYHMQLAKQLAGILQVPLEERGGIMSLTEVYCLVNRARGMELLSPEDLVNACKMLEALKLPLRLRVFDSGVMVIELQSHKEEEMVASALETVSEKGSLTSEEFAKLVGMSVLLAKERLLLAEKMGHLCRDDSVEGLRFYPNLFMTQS
UniProt Q9Y2W2: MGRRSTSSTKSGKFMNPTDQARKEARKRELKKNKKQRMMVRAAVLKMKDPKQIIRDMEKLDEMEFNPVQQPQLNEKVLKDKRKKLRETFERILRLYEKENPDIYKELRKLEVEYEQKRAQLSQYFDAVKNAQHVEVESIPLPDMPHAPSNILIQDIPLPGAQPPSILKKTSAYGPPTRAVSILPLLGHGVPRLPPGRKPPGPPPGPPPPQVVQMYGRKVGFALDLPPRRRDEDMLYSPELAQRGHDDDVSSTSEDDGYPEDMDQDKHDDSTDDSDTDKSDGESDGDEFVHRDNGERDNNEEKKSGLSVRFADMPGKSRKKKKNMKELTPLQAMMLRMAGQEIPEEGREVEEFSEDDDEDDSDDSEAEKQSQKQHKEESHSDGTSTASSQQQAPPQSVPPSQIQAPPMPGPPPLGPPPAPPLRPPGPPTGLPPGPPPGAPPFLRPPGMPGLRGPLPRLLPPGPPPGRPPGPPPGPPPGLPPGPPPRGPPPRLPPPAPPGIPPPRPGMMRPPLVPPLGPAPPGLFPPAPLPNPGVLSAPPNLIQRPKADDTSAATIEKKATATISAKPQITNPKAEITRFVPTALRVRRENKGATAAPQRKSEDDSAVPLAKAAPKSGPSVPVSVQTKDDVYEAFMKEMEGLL
UniProt Q9NRW7: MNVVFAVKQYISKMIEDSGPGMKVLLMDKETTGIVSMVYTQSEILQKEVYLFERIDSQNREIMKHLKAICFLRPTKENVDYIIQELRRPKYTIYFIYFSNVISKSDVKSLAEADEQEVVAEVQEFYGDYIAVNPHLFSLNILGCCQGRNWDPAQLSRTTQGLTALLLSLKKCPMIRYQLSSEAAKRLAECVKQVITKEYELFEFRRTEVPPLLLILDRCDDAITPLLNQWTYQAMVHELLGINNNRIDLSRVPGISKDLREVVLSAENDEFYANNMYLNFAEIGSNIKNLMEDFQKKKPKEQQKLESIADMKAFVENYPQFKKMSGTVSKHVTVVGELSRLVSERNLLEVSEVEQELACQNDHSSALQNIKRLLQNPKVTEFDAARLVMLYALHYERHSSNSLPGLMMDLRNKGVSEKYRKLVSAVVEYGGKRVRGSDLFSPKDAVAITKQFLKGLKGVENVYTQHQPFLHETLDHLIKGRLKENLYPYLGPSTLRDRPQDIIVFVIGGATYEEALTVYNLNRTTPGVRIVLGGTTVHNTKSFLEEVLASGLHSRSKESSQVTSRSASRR
UniProt Q6UXN9, whole entry, looked up: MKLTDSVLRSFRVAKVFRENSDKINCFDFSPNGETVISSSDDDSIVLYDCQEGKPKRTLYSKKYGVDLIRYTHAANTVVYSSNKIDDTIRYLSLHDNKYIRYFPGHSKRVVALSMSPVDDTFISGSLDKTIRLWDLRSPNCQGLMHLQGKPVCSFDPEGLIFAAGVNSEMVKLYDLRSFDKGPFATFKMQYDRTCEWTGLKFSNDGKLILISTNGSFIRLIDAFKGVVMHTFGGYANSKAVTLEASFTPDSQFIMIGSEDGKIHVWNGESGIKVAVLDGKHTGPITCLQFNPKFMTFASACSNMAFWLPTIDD
UniProt Q9H9H4: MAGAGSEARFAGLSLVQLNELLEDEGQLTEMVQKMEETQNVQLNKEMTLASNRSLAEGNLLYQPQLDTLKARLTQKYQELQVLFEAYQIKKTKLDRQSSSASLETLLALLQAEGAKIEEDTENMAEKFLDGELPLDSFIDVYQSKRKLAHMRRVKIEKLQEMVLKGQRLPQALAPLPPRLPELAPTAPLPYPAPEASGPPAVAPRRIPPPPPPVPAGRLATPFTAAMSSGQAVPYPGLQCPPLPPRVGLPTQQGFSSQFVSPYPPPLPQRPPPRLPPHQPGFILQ
UniProt O00534: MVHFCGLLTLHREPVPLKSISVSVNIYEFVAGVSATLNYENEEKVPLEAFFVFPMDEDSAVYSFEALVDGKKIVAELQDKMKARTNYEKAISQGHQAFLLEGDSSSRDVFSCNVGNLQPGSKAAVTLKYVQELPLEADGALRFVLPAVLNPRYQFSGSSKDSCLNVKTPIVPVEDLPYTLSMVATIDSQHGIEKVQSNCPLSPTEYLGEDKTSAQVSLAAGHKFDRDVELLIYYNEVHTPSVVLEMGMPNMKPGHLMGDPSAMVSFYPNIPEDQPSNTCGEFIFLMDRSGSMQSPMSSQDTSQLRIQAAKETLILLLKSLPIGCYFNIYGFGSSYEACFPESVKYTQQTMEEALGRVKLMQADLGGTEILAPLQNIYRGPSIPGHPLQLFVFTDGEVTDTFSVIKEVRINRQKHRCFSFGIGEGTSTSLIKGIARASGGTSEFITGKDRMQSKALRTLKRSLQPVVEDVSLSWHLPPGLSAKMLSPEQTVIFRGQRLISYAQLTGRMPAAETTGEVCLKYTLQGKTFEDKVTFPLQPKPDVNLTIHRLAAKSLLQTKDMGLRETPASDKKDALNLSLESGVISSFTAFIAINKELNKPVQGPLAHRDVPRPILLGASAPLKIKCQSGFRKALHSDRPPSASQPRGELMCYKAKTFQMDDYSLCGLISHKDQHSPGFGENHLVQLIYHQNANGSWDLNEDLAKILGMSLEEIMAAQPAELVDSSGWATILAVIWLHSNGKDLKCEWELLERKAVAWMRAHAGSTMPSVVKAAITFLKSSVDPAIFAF
UniProt Q9BUR4: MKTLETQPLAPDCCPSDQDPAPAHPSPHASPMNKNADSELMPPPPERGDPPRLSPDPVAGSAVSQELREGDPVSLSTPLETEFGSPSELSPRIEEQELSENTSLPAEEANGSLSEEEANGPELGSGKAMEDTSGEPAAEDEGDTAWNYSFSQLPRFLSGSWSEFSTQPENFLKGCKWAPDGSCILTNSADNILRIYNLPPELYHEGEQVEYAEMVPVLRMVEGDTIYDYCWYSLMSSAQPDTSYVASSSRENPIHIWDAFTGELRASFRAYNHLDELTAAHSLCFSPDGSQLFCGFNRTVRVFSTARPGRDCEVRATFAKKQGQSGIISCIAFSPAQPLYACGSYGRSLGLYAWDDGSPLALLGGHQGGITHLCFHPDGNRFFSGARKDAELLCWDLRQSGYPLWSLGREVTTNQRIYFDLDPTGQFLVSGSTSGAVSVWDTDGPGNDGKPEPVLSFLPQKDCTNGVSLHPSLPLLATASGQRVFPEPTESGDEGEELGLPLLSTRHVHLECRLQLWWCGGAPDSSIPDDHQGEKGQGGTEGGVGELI
UniProt Q92558: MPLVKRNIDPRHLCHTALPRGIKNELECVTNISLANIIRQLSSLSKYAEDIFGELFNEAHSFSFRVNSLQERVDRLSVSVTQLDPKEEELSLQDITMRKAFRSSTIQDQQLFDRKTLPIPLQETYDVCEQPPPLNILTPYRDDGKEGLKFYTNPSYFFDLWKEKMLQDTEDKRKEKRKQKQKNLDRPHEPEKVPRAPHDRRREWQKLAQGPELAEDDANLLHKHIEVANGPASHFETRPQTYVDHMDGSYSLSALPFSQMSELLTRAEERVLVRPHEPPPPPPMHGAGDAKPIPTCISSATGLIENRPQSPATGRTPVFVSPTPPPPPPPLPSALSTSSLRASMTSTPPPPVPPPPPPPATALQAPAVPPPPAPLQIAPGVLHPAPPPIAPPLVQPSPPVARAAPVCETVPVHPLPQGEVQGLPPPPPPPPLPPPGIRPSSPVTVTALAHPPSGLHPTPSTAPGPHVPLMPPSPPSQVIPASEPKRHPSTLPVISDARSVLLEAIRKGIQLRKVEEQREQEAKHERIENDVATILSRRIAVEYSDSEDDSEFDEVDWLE

Target | log2 fold change
WDR5 (UniProt P61964) | inactive: 0.032
WDR6 (UniProt Q9NNW5) | inactive: 0.006
WDR13 (UniProt Q9H1Z4) | inactive: -0.07
VPS4B (UniProt O75351) | inactive: -0.019
WDR74 (UniProt Q6RFH5) | inactive: 0.189
WDR36 (UniProt Q8NI36) | inactive: 0.053
VPS13C (UniProt Q709C8) | inactive: -0.026
WIPF2 (UniProt Q8TF74) | inactive: -0.027
VPS36 (UniProt Q86VN1) | inactive: -0.018
WDR70 (UniProt Q9NW82) | inactive: -0.017
VPS26A (UniProt O75436) | inactive: -0.038
VPS29 isoform 2 (UniProt Q9UBQ0) | inactive: 0.022
WBP11 (UniProt Q9Y2W2) | inactive: -0.078
WDR26, A0A499FIZ0 | inactive: 0.059
VPS45 (UniProt Q9NRW7) | inactive: -0.044
WDR82 (UniProt Q6UXN9) | inactive: 0.118
WDFY1 (UniProt Q8IWB7) | inactive: 0.028

Target | log2 fold change
VPS37B (UniProt Q9H9H4) | inactive: 0.025
VWDE (UniProt Q8N2E2) | inactive: 0.032
VWA5A (UniProt O00534) | inactive: -0.023
VPS13A (UniProt Q96RL7) | inactive: -0.029
WASL (UniProt O00401) | inactive: -0.136
WDR73 (UniProt Q6P4I2) | inactive: -0.026
WASHC4 (UniProt Q2M389) | inactive: 0.022
VPS35 (UniProt Q96QK1) | inactive: -0.014
WDR45 (UniProt Q9Y484) | inactive: -0.025
VPS4A (UniProt Q9UN37) | inactive: -0.021
WASF2 (UniProt Q9Y6W5) | inactive: -0.026
WRAP53 (UniProt Q9BUR4) | inactive: -0.089
WDR77 (UniProt Q9BQA1) | inactive: -0.002
WIPF3 (UniProt A6NGB9) | inactive: 0.111
WASF1 (UniProt Q92558) | inactive: -0.156
VPS26B (UniProt Q4G0F5) | inactive: -0.024

What follows are targets tested with CC(C)(C)Cn1c(N)nc2ccc(-c3[nH]c(C(C)(C)C)nc3-c3ccc(F)cc3)nc21 [ralimetinib] in the same assay as above.
Summary of the method: as §1

Target | log2 fold change
WDR5 (UniProt P61964) | inactive: 0.073
WDR6 (UniProt Q9NNW5) | inactive: 0.048
WDR13 (UniProt Q9H1Z4) | inactive: -0.094
VPS4B (UniProt O75351) | inactive: -0.077
WDR74 (UniProt Q6RFH5) | inactive: 0.083
WDR36 (UniProt Q8NI36) | inactive: 0.095
VPS13C (UniProt Q709C8) | inactive: -0.014
WIPF2 (UniProt Q8TF74) | inactive: -0.073
VPS36 (UniProt Q86VN1) | inactive: -0.028
WDR70 (UniProt Q9NW82) | inactive: -0.008
VPS26A (UniProt O75436) | inactive: -0.031
VPS29 isoform 2 (UniProt Q9UBQ0) | inactive: -0.061
WBP11 (UniProt Q9Y2W2) | inactive: -0.027
WDR26, A0A499FIZ0 | inactive: -0.021
VPS45 (UniProt Q9NRW7) | inactive: -0.047
WDR82 (UniProt Q6UXN9) | inactive: 0.034
WDFY1 (UniProt Q8IWB7) | inactive: -0.022

Target | log2 fold change
VPS37B (UniProt Q9H9H4) | inactive: 0.119
VWDE (UniProt Q8N2E2) | inactive: 0.045
VWA5A (UniProt O00534) | inactive: 0.019
VPS13A (UniProt Q96RL7) | inactive: -0.018
WASL (UniProt O00401) | inactive: -0.031
WDR73 (UniProt Q6P4I2) | inactive: -0.001
WASHC4 (UniProt Q2M389) | inactive: -0.023
VPS35 (UniProt Q96QK1) | inactive: -0.017
WDR45 (UniProt Q9Y484) | inactive: -0.071
VPS4A (UniProt Q9UN37) | inactive: 0
WASF2 (UniProt Q9Y6W5) | inactive: -0.012
WRAP53 (UniProt Q9BUR4) | inactive: 0.026
WDR77 (UniProt Q9BQA1) | inactive: 0.013
WIPF3 (UniProt A6NGB9) | inactive: -0.047
WASF1 (UniProt Q92558) | inactive: -0.109
VPS26B (UniProt Q4G0F5) | inactive: -0.022

What follows are targets tested with CC(C)(O)CC(=O)NCCn1ccc2ncnc(Nc3ccc(Oc4cccc(C(F)(F)F)c4)c(Cl)c3)c21 in the same assay as above.
Summary of the method: as §1

Target | log2 fold change
WDR5 (UniProt P61964) | inactive: 0.025
WDR6 (UniProt Q9NNW5) | inactive: -0.012
WDR13 (UniProt Q9H1Z4) | inactive: -0.033
VPS4B (UniProt O75351) | inactive: -0.086
WDR74 (UniProt Q6RFH5) | inactive: 0.016
WDR36 (UniProt Q8NI36) | inactive: 0.071
VPS13C (UniProt Q709C8) | inactive: -0.033
WIPF2 (UniProt Q8TF74) | inactive: 0.009
VPS36 (UniProt Q86VN1) | inactive: -0.006
WDR70 (UniProt Q9NW82) | inactive: -0.006
VPS26A (UniProt O75436) | inactive: -0.039
VPS29 isoform 2 (UniProt Q9UBQ0) | inactive: -0.011
WBP11 (UniProt Q9Y2W2) | inactive: 0.035
WDR26, A0A499FIZ0 | inactive: -0.031
VPS45 (UniProt Q9NRW7) | inactive: -0.097
WDR82 (UniProt Q6UXN9) | inactive: 0.036
WDFY1 (UniProt Q8IWB7) | inactive: -0.01

Target | log2 fold change
VPS37B (UniProt Q9H9H4) | inactive: -0.075
VWDE (UniProt Q8N2E2) | inactive: -0.05
VWA5A (UniProt O00534) | inactive: -0.015
VPS13A (UniProt Q96RL7) | inactive: -0.053
WASL (UniProt O00401) | inactive: -0.032
WDR73 (UniProt Q6P4I2) | inactive: 0
WASHC4 (UniProt Q2M389) | inactive: -0.145
VPS35 (UniProt Q96QK1) | inactive: -0.079
WDR45 (UniProt Q9Y484) | inactive: -0.049
VPS4A (UniProt Q9UN37) | inactive: -0.059
WASF2 (UniProt Q9Y6W5) | inactive: 0.008
WRAP53 (UniProt Q9BUR4) | inactive: 0.028
WDR77 (UniProt Q9BQA1) | inactive: -0.053
WIPF3 (UniProt A6NGB9) | inactive: 0.046
WASF1 (UniProt Q92558) | inactive: -0.07
VPS26B (UniProt Q4G0F5) | inactive: 0.001

Source: the supplement of paper PMC10849652
